This is an account of results in patent US20080305054A1, “Use of Glycosylated Flavanones for the Browning of Skin or Hair” (SYMRISE GMBH & CO. KG, priority 2004, published 2008).

The amount applied is not stated for every result.

The test system of the data set is B16V mouse melanoma cells. Briefly: Calculation of the safety factor SF. The following applies: Safety factor SF=(IC50 cytotox)/(EC50 pigmenting effect). The class given is cell-based.

Take `COc1ccc([C@@H]2CC(=O)c3c(O)cc(O[C@@H]4O[C@H](CO[C@@H]5O[C@@H](C)[C@H](O)[C@@H](O)[C@H]5O)[C@@H](O)[C@H](O)[C@H]4O)cc3O2)cc1O` [Hesperidin]: the SF was 1000.

Take `C[C@@H]1O[C@@H](O[C@H]2[C@H](Oc3cc(O)c4c(c3)OC(c3ccc(O)cc3)CC4=O)O[C@H](CO)[C@@H](O)[C@@H]2O)[C@H](O)[C@H](O)[C@H]1O` (some centres unmarked) [Naringin]: the SF was 20000. The SF (listed as naringin) was 20,000.

Turning to `COc1ccc(C2CC(=O)c3c(O)cc(OC4OC(CO)C(O)C(O)C4OC4OC(C)C(O)C(O)C4O)cc3O2)cc1O` (centres unmarked) [Neohesperidin], the SF was 4000.

In the case of `O=c1c(O)c(-c2ccc(O)c(O)c2)oc2cc(O)cc(O)c12` [Quercetin], the SF is 3.2.
